Binding data for one substance are collected here from publication PMC12064789.

Protein sequences, listed by entry. Tags and fused reporters are not part of them.
UniProt P67809: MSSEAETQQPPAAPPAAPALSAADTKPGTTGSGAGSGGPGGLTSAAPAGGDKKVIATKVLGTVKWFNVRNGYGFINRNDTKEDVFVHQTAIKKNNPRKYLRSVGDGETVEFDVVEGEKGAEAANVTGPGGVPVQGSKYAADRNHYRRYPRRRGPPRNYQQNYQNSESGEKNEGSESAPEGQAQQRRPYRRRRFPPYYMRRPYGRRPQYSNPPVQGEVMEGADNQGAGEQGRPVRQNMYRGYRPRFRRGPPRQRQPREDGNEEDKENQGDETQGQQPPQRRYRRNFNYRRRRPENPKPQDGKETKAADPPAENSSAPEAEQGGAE

Results are given in words; binding and its absence hold for the method and conditions named. Binding seen in cells or lysates may run through a third protein. Here binding means that the protein was enriched with, or labelled near, the bait; the list need not be complete.

The assay addresses T1, Cartilage Intermediate Layer Protein 1 (CILP1) (human (endogenous in HSFs)) (UniProt O75339).
T1 sequence: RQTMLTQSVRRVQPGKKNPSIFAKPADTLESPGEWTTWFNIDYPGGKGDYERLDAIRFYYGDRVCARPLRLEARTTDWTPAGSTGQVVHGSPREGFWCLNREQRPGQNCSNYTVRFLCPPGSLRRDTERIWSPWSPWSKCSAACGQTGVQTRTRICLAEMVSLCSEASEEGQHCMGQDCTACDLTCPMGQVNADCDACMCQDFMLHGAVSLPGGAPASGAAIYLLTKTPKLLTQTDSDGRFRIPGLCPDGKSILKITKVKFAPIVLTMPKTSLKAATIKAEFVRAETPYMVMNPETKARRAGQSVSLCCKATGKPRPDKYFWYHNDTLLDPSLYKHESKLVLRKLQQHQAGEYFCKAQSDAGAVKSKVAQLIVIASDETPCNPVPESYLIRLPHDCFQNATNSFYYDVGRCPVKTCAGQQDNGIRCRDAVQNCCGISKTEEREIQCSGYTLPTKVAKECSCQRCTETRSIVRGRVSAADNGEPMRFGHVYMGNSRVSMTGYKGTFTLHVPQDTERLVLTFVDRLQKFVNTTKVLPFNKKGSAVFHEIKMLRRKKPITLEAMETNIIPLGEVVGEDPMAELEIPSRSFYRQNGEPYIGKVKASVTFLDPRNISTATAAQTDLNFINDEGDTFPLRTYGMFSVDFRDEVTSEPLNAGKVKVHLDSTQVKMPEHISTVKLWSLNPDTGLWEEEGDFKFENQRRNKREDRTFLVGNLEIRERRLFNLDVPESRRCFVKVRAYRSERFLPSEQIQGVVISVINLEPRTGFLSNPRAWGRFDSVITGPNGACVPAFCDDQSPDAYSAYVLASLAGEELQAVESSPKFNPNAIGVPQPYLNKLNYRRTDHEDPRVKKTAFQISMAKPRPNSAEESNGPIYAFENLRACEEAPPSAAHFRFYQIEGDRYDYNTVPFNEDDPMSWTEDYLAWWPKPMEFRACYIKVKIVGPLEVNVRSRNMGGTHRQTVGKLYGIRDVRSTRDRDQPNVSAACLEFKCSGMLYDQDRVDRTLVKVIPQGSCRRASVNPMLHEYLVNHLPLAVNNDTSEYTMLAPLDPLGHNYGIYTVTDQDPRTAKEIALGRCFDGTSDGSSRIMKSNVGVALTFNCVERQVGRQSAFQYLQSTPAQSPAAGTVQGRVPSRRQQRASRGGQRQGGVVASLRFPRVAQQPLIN
In words: affinity purification with mass spectrometry; 5 ug CILP1 antibody or IgG incubated overnight with about 1000 ug total protein of HSFs, Protein A/G PLUS-Agarose for 4 h, SDS-PAGE, nano-HPLC-MS/MS; called 'pull-down-MS' in the results.

On to “Y-box-binding protein 1 (YBX1) (from UniProt P67809 1-324)”, for which the binding result is reported as “binds”.
